No constants are given. Whether binding was seen depends on the method and setting. Binding seen in cells or lysates may run through a third protein. For part of these data: A result given as binding can be weak or reduced; the word gives no strength.

The source of these data is paper PMC9403187.

Test in all cases: co-IP
Test [1] concerns the target MAYV 2Δ GFP-nsP3 (Mayaro virus).
Test [2] deals with MAYV GFP-nsP3 ΔFGAP (Mayaro virus).
Test [3] concerns the target MAYV GFP-nsP3 ΔFGDF (Mayaro virus).

B1: Ras-GTPase-activating SH3 domain-binding protein 2 (G3BP2) (protein, UniProt Q9UN86 1-482)
chain: MVMEKPSPLLVGREFVRQYYTLLNKAPEYLHRFYGRNSSYVHGGVDASGKPQEAVYGQNDIHHKVLSLNFSECHTKIRHVDAHATLSDGVVVQVMGLLSNSGQPERKFMQTFVLAPEGSVPNKFYVHNDMFRYEDEVFGDSEPELDEESEDEVEEEQEERQPSPEPVQENANSGYYEAHPVTNGIEEPLEESSHEPEPEPESETKTEELKPQVEEKNLEELEEKSTTPPPAEPVSLPQEPPKAFSWASVTSKNLPPSGTVSSSGIPPHVKAPVSQPRVEAKPEVQSQPPRVREQRPRERPGFPPRGPRPGRGDMEQNDSDNRRIIRYPDSHQLFVGNLPHDIDENELKEFFMSFGNVVELRINTKGVGGKLPNFGFVVFDDSEPVQRILIAKPIMFRGEVRLNVEEKKTRAARERETRGGGDDRRDIRRNDRGPGGPRGIVGGGMMRDRDGRGPPPRGGMAQKLGSGRGTGQMEGRFTGQRR
As for B1, the binding result in test [1] is recorded as “no binding”; in test [2] it was “binds”; in test [3], “binds”.
